Where no end group is shown, it is not given here.
Assay: general procedure: Fmoc solid-phase peptide synthesis; HMP resin
Details: whole synthesis, scale 0.25 mmol

Ac-EEMQRRNGSLNTHLAPIL (N-terminus assumed)
isolated yield: about 30±5%

— patent US20200165312A1 (LG HOUSEHOLD & HEALTH CARE LTD., priority 2017, published 2020)
